The results in this text go back to patent US20240398788A1, “METHODS OF TREATING CANCER USING HSF1 PATHWAY INHIBITORS” (Institute of Cancer Research, priority 2021, published 2024).

For data set [1], the system named is OVCAR-5 ovarian cancer xenograft (ARID1A wildtype). The conditions noted are these: OVCAR-5 model, mice, oral dosing. The text has this: (§1) Once the tumours were established, mice were randomised into vehicle control and treatment groups. Mice in both the vehicle control and treatment groups that were removed during the course of the study due to spontaneous or treatment derived tumour regression, tumour growth approaching license limits, tumour ulceration or loss of condition were excluded from the final analysis of the mean tumour volume and standard error of the mean and up to the point they were removed from the study. The number of mice undergoing complete tumour regression in the treatment group is noted where applicable.
(§2) Two groups of 12 female NCr nude mice (3 groups of 10 for SK-OV-3) were injected with 3-5×10^6 cells of one of the above cancer cell lines, subcutaneously. […] Body weights were taken daily and animals were monitored for signs of toxicity. To evaluate drug levels the animals were euthanised in batches of 3 to 4 at 2, 6 and 24 hours after the last dose and terminal plasma and tumour samples collected for PK analysis.

Data set [2] has as its system RMG1 ovarian cancer xenograft (ARID1A wildtype). To be noted: RMG1 model, mice, oral dosing.
Text: as §1, §2

For data set [3], the system named is ES-2 ovarian cancer xenograft (ARID1A wildtype). To be noted: ES-2 model, mice, oral dosing.
Text: as §1, §2

Each structure is given as a SMILES string.

As for `CCN1CCN(Cc2ccc3cc(C(=O)Nc4cc(NC(=O)c5ccc6c(c5)OCCO6)ccc4F)ccc3n2)CC1` [Compound A, N-(5-(2,3-Dihydrobenzo[b][1,4]dioxine-6-carboxamido)-2-fluorophenyl)-2-((4-ethylpiperazin-1-yl)methyl)quinoline-6-carboxamide], the results for the “Plasma Cmax” value in data set [1], in data set [2] and in data set [3] were “within the range seen in successful efficacy studies”, “less than half the lowest level seen in successful efficacy studies” and “within the range seen in successful efficacy studies”, respectively.
